In this test the target is T1, HA-Toc75 (Toc75 with an HA epitope tag inserted between E142 and E143 of the precursor) (A. thaliana) (UniProt Q9STE8).
T1 sequence: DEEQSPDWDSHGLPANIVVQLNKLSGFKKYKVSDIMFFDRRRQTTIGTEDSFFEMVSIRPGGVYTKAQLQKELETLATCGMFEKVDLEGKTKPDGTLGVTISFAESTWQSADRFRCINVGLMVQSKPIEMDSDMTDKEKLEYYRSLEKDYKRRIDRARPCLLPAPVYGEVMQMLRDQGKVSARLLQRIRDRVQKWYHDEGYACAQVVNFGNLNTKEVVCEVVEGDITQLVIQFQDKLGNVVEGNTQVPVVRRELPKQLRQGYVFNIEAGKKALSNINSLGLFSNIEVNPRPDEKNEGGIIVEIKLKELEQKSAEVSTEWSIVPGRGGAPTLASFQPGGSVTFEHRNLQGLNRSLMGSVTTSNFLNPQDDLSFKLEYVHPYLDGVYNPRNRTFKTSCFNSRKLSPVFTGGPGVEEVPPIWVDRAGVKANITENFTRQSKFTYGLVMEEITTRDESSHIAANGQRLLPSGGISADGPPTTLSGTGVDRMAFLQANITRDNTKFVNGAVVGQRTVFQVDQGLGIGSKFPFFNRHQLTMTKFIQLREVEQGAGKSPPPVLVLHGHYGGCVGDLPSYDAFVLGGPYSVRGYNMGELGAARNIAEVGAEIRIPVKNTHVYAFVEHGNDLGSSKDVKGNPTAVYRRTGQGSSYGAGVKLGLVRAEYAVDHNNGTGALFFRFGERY
As to the kind of experiment: affinity purification with mass spectrometry; label-free quantification of HA-affinity purified HA-Toc75 preparations against a wild-type negative control (n = 3), in-solution digestion, LC-MS/MS.

These are yes or no findings as the source states them, for the method shown. Binding seen in cells or lysates may run through a third protein. A yes stands for co-enrichment or nearness to the bait. Other partners may have been found. Where a sequence is shown, tags or fusion partners need not be part of it.

B1: OEP80 (Toc75-V) (protein, UniProt Q9C5J8 1-732)
chain: MHCHNDDVRFSSSSIRIHSPSPKEQHSLLTNLQSCSKTFVSHLSNTRNSLNQMLQSLKNRHTPPPRSVRRPNLPTQMLNSVTQLMIGKSSPISLSLIQSTQFNWSESRDENVETIRGLSSPLLCCASLSLTRPNESTQSVEGKDTVQQQKGHSVSRNAEERVLISEVLVRTKDGEELERKDLEMEALAALKACRANSALTIREVQEDVHRIIESGYFCSCTPVAVDTRDGIRLMFQVEPNQEFRGLVCENANVLPSKFIHEAFRDGFGKVINIKRLEEAITSINGWYMERGLFGIVSDIDTLSGGIVRLQVAEAEVNNISIRFLDRKTGEPTKGKTSPETILRQLTTKKGQVYSMLQGKRDVDTVLAMGIMEDVSIIPQPAGDSGKVDLIMNCVERPSGGFSAGGGISSGITSGPLSGLIGSFAYSHRNLFGRNQKLNVSLERGQIDSIFRINYTDPWIEGDDKRTSRSIMVQNSRTPGNLVHGNQPDNSSLTIGRVTAGVEYSRPFRPKWNGTAGLIFQHAGARDEQGNPIIKDFYSSPLTASGKPHDETMLAKLESIYTGSGDQGSTMFAFNMEQGLPVLPEWLCFNRVTGRARKGIHIGPARFLFSLSGGHVVGKFSPHEAFVIGGTNSVRGYEEGAVGSGRSYVVGSGELSFPVRGPVEGVIFTDYGTDMGSGSTVPGDPAGARLKPGSGYGYGLGVRVDSPLGPLRLEYAFNDQHAGRFHFGVGLRN
Consider B1, for which the binding entry is “binds”.

The values above are taken from publication PMC13279931.
